The test addresses taxol-stabilized microtubules (purified bovine brain tubulin) (bovine). Put plainly: co-sedimentation; 500 nM purified protein with 3 μm taxol-stabilized microtubules, 30 min at room temperature; 60% glycerol BRB80 cushion, 50,000 rpm 30 min; supernatant and pellet on SDS-PAGE, Coomassie; both purified.

These are yes or no findings as the source states them, for the method shown. A result given as binding can be weak or reduced; the word gives no strength. Where a sequence is shown, tags or fusion partners need not be part of it.

B1: His-MBP-CCDC66 (570–948) (domain or fragment, UniProt A2RUB6 570-948)
chain: GVDTIQMEYNASNISNSRHDSDEISGKMNTYMNSTTSKKDTGVQTDDLNIGIFTNAESHCGSLMERDITNCSSPEISAELIGQFSTKKNKQELTQDKGASLEKENNRCNDQCNQFTRIEKQTKHMKKYPKRPDWNINKPPKRYIPASEKYPKQLQKQREEKKVRRQMELLHLVEKNNPGHLSQNRGISPEIFHSSHQETESKLRWHLVKKEEEPLNIHSFSKERSPSSPVPVVKNRTQQTQNTLHLPLKNSSYERENLISGSNQTELSSGISESSHFIPYVRTNEIYYLDPDAPLSGPSTQDPQYQNSQDCGQKRQLFDSDCVRDPLLNPNMVKNRDRQQAILKGLSELRQGLLQKQKELESSLLPLAENQEESFGSSF
Regarding B1, the binding result is given as “binds”.

For the origin of these results see PMC9333452.
